Test results: PMC11173422, “Substitution-Induced Mechanistic Switching in SNAr-Warheads for Cysteine Proteases” (Molecules, 2024)

Assay: Inner-filter effect: attenuation of free AMC fluorescence
Details: for attenuation of fluorescence signal: inhibitor 10 µM, 10 µM AMC in assay buffer

For `CC(C)C[C@H](NC(=O)[C@H](Cc1ccccc1)Nc1ccc([N+](=O)[O-])c([N+](=O)[O-])c1)C(=O)O` [Compound 2], the “attenuation of fluorescence signal” value was 14%.
With `CC(C)C[C@H](NC(=O)[C@H](Cc1ccccc1)Nc1cc(F)c([N+](=O)[O-])cc1[N+](=O)[O-])C(=O)O` [Compound 3] the “attenuation of fluorescence signal” value was 11%.
Compound “N-(5-fluoro-2,4-dinitrobenzoyl)-L-phenylalanyl-L-leucine [Compound 9]” has a fluorescence interference (inhibitor 500 µM) of 8% and a fluorescence interference (inhibitor 1000 µM) of 23%.
